# Data taken from the supplement of paper PMC9877034.
# Counter-ions that a name gives are not always drawn. In all, about 1,000 compounds were measured (“cFRET/donor change relative to DMSO, normalised to beta-lapachone positive control (supercomplex I-IV assembly)”: median about 0.18, lowest 2% from about -1 on). This is one part of the list.
# Test system: C2C12 (NDUFB8-AcGFP / COX8A-DsRed-Monomer FRET reporter)
# Experiment: cFRET/donor change relative to DMSO, normalised to beta-lapachone positive control (supercomplex I-IV assembly) (fraction of beta-lapachone effect); higher = more respiratory supercomplex assembly
# Conditions: 40 µM; 24 h
# Method: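 Cells were treated with 40 uM compound for 24 h and imaged on an IN Cell Analyzer 6000. Corrected FRET was divided by donor signal (cFRET/donor) and measured in two replicate experiments. The score is (mean cFRET/donor of compound - mean DMSO) / (mean beta-lapachone 40 uM - mean DMSO). Compounds flagged for prominent cell death, abnormal morphology or decreased cell number were excluded.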
row,Compound,cFRET/donor change
1,CNC(=O)Oc1ccc2c(c1)[C@]1(C)CCN(C)[C@@H]1N2C [(-)-Physostigmine],0.0769
2,"CC(N)c1cccc(Cl)c1Cl (racemic) [(±)-2,3-Dichloro-alpha-methylbenzylamine hydrochloride]",0.216
3,CC(=O)NCCc1c[nH]c2ccccc12 [N-Acetyltryptamine],-0.0443
4,Cc1cc2c(C(C)C)c(O)c(O)c(C=O)c2c(O)c1-c1c(C)cc2c(C(C)C)c(O)c(O)c(C=O)c2c1O [Gossypol],1.33
5,C=CCN1CC[C@]23CCCC[C@H]2[C@H]1Cc1ccc(O)cc13 [Levallorphan tartrate],0.171
6,O=c1ccc2[nH]cc(C3=CCNCC3)c2[nH]1,1.34
7,CN(C)C(=O)Oc1ccc[n+](C)c1 [Pyridostigmine bromide],0.227
8,CN1[C@@H]2C[C@@H](OC(=O)[C@H](CO)c3ccccc3)C[C@H]1[C@H](O)C2 (racemic) [(+/-)-Anisodamine],0.269
9,"Clc1ccc(N2CCN(Cc3c[nH]c4ncccc34)CC2)cc1 [L-745,870 hydrochloride]",0.227
10,CCn1cnc2c(Nc3cccc(Cl)c3)nc(N[C@@H]3CCCC[C@@H]3N)nc21,0.598
11,NCCCNCCSP(=O)(O)O [Amifostine],0.219
12,NCCc1c[nH]c2ccc(C(N)=O)cc12 [5-Carboxamidotryptamine maleate],0.495
13,"CCCC[N+]1(C)[C@@H]2C[C@@H](OC(=O)[C@H](CO)c3ccccc3)C[C@H]1[C@@H]1O[C@@H]12 (single isomer, unassigned; (-)) [(-)-Scopolamine,n-Butyl-, bromide]",0.541
14,c1ccc2sc(C3(N4CCCCC4)CCCCC3)cc2c1 [BTCP hydrochloride],0.252
15,C[N+]1(C)C2CCC1CC(OC(=O)c1c[nH]c3ccccc13)C2 (configuration not stated) [3-Tropanylindole-3-carboxylate methiodide],-0.326
16,N#C/C(=C\c1ccc(O)c(O)c1)C(N)=S [Tyrphostin 47],-0.506
17,COc1ccc(OC)c(C(O)C(C)N)c1 (configuration not stated) [Methoxamine hydrochloride],0.714
18,C[C@@]12C(=O)OC(=O)[C@]1(C)[C@H]1CC[C@@H]2O1 [Cantharidin],-0.151
19,"NC1CCc2cc(O)c(O)cc2C1 (configuration not stated) [6,7-ADTN hydrobromide]",0.283

row,Compound,cFRET/donor change
1,NC(CP(=O)(O)O)C(=O)O (racemic) [(±)-2-Amino-3-phosphonopropionic acid],0.482
2,"COc1ccc2c(c1OC)C(=O)OC2C1c2cc3c(cc2CCN1C)OCO3 (single isomer, unassigned; (+)) [(+)-Hydrastine]",0.0426
3,O=C1C=CC(=O)C=C1 [p-Benzoquinone],0.485
4,CC1=NN=C(c2ccc(N)cc2)c2cc3c(cc2C1)OCO3,0.287
5,CC(=O)c1c(O)c(C)c(O)c(Cc2c(O)c3c(c(C(=O)/C=C/c4ccccc4)c2O)OC(C)(C)C=C3)c1O [Rottlerin],-0.348
6,COc1ccccc1N1CCNCC1 [1-(2-Methoxyphenyl)piperazine hydrochloride],-0.283
7,C[C@@H]1O[C@@H](O[C@H]2C[C@@H](O)[C@]3(CO)[C@H]4[C@H](O)C[C@]5(C)[C@@H]([C@@H]6COC(=O)C6)CC[C@]5(O)[C@@H]4CC[C@]3(O)C2)[C@H](O)[C@H](O)[C@H]1O [Dihydroouabain],0.51
8,CC(=O)OCC1=C(C(=O)[O-])N2C(=O)[C@@H](NC(=O)CCC[C@@H](N)C(=O)[O-])[C@H]2SC1.[Zn+2] [Cephalosporin C zinc salt],0.245
9,CN1C(=O)CCS(=O)(=O)C1c1ccc(Cl)cc1 (configuration not stated) [Chlormezanone],0.213
10,O=P1(N(CCCl)CCCl)NCCCO1 (configuration not stated) [Cyclophosphamide monohydrate],0.0561
11,O=C(O)Cc1cnc[nH]1 [Imidazole-4-acetic acid hydrochloride],0.0409
12,O=C(O)[C@@H]1CCN1 [L-azetidine-2-carboxylic acid],0.0533
13,Cc1cc([C@@H]2CCCN2C)on1 [ABT-418 hydrochloride],0.00506
14,COc1cc2c(c(OC)c1OC)-c1ccc(OC)c(=O)cc1[C@@H](NC(C)=O)CC2 [Colchicine],0.534
15,CC[C@@H](CO)NC(=O)[C@@H]1C=C2c3cccc4c3c(cn4C)C[C@H]2N(C)C1 [Methysergide maleate],0.494
16,CC(C)C1CNC(C(=O)O)C1CC(=O)O (configuration not stated) [Dihydrokainic acid],0.519
17,"C[C@]12CC[C@@H](O)C[C@@H]1CC[C@@H]1[C@@H]2CC[C@]2(C)[C@@H](C(=O)CO)CC[C@@H]12 [3-alpha,21-Dihydroxy-5-alpha-pregnan-20-one]",0.00272
18,CCCN(CCC)C1CCc2cccc(O)c2C1 (racemic) [(±)-8-Hydroxy-DPAT hydrobromide],0.0524

# 8 of the compounds above, tab-delimited.
row	Compound	cFRET/donor change
15	C[N+]1(C)C2CCC1CC(OC(=O)c1c[nH]c3ccccc13)C2 (configuration not stated) [3-Tropanylindole-3-carboxylate methiodide]	-0.326
16	N#C/C(=C\c1ccc(O)c(O)c1)C(N)=S [Tyrphostin 47]	-0.506
17	COc1ccc(OC)c(C(O)C(C)N)c1 (configuration not stated) [Methoxamine hydrochloride]	0.714
18	C[C@@]12C(=O)OC(=O)[C@]1(C)[C@H]1CC[C@@H]2O1 [Cantharidin]	-0.151
19	NC1CCc2cc(O)c(O)cc2C1 (configuration not stated) [6,7-ADTN hydrobromide]	0.283
1	NC(CP(=O)(O)O)C(=O)O (racemic) [(±)-2-Amino-3-phosphonopropionic acid]	0.482
2	COc1ccc2c(c1OC)C(=O)OC2C1c2cc3c(cc2CCN1C)OCO3 (single isomer, unassigned; (+)) [(+)-Hydrastine]	0.0426
3	O=C1C=CC(=O)C=C1 [p-Benzoquinone]	0.485
